PMC7608914
Results are given in words; binding and its absence hold for the method and conditions named.

Target: PARP2-QFRD (human) (UniProt Q9UGN5)
Assay: SEC-MALS; Superdex 200 Increase 10/300; HEPES 50 mM pH 7.5, NaCl 150 mM, MgCl2 1 mM, EDTA 0.1 mM, TCEP 0.1 mM; PARP2-QFRD at 30 μM, Nuc165 at 4.61 μM, each alone; both purified

Q: With “PARP2-QFRD (from UniProt Q9UGN5-2 1-570) (enzyme)” as the substance, how does the binding read?
A: Its binding is “no binding (tested: 30 μM)”.
